From article PMC7819943, “Rice protein-binding microarrays: a tool to detect cis-acting elements near promoter regions in rice”
The other results are listed elsewhere or left out.

The chains behind the UniProt entries cited, without tags or fusion partners.
UniProt Q0JBA9, entry or part of it: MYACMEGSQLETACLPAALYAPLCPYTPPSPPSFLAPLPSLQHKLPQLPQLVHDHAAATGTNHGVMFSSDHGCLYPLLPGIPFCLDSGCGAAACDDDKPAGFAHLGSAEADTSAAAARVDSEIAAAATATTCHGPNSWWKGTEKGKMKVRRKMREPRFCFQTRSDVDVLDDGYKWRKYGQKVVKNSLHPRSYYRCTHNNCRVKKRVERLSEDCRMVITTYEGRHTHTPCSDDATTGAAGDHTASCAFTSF

Target: OsWRKY34 (Oryza sativa, UniProt Q0JBA9 1-250)
Test: protein-binding microarray (RPBM); PBS, 2% BSA, 51.3 ng/ul salmon testes DNA, 50 uM zinc acetate, 200 nM TF, 25 C, 1 h; high values mean tight binding
Details: protein: recombinant; tags: N-terminal polyhistidine and DsRed monomer fusion (pET32a); label: CyDye5-dUTP incorporated in the synthesized complementary strand; 3' TTTTT single-stranded linker to array surface; dsDNA, one strand shown
How it was run: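 For the binding signal, per-feature fluorescence intensity was read in arbitrary units on an Axon 4000B scanner. Before scanning, a 2% BSA-blocked custom Agilent array made double-stranded with Cy5-dUTP was washed after 1 h at 25 °C with 200 nM protein and 50 µM zinc acetate. The proteins were Ni–NTA-purified transcription factors with N-terminal polyhistidine and DsRed fusions, expressed in E. coli BL21-CodonPlus.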

Sequence | binding signal
CTTTCACCCTACTAAACATTGTAATTGTATATGTGGATCACGGAGTCACCTAGTGCAG | 9500 fluorescence intensity (a.u.)
TCCTCGCGTTCTTTTTCTCCACCGAGACCACCGGCGCTCTCGGAGTCACCTAGTGCAG | 9050 fluorescence intensity (a.u.)
TCCACCGCCTCCGGCCGCCTCTCCGGCGATCGCCGACTTCCGGAGTCACCTAGTGCAG | 8440 fluorescence intensity (a.u.)
ATTTACAAAAATTATCCTTTTTCTTTATCCACCAGCTTCTCGGAGTCACCTAGTGCAG | 8630 fluorescence intensity (a.u.)
GCTACCCTTTTTCCCTGATATCTATCCCCTTTCCATTGTACGGAGTCACCTAGTGCAG | 9950 fluorescence intensity (a.u.)
AAATGTGTTGTTGTCTGGTTTGATTCCCTATCAAAATTTACGGAGTCACCTAGTGCAG | 9510 fluorescence intensity (a.u.)
ATATATAGCCTCTGCCTAAAACCATCATGCTCCTTCAGTTCGGAGTCACCTAGTGCAG | 9250 fluorescence intensity (a.u.)
TAAGACAAACGGTCAAACATATGCTAAAAAGTCAACGGCGCGGAGTCACCTAGTGCAG | 11300 fluorescence intensity (a.u.)
TACTTATGTAACACCTTTTGTATCTGAATGTATTTATTTCCGGAGTCACCTAGTGCAG | 9790 fluorescence intensity (a.u.)
GGGGCACAGTTTCTTCAACCTCCAGCCATTAGGAACTTTTCGGAGTCACCTAGTGCAG | 8150 fluorescence intensity (a.u.)
ACGAGCCTGTGTCCCCACGCTACACATTCTGTTTGCTCTTCGGAGTCACCTAGTGCAG | 9910 fluorescence intensity (a.u.)
AATACCGTCAGTTCTTGCAGCCAACCGCATCCGCCATAAACGGAGTCACCTAGTGCAG | 8850 fluorescence intensity (a.u.)
AGTAGTCTTATAGCATGTTTTGCTTGTGTGCTTTGTTTGTCGGAGTCACCTAGTGCAG | 12700 fluorescence intensity (a.u.)
GTCCCGATCCGCCGTTGACCAAGATCGACCCCGATCACCTCGGAGTCACCTAGTGCAG | 14900 fluorescence intensity (a.u.)
GGGGATTTGGGGAGACTTTTGGAGGGGAGGAGAGAGGGCGCGGAGTCACCTAGTGCAG | 19700 fluorescence intensity (a.u.)
TTTAGATATCAGCCGTGCACTTTACTTTTTTTTTTTTTCGCGGAGTCACCTAGTGCAG | 8390 fluorescence intensity (a.u.)
CATACTAATTCAGTTATTCCGATGCCATTTTCTTGTTGAACGGAGTCACCTAGTGCAG | 10400 fluorescence intensity (a.u.)
TGCCCTTCTGCCTATTATGTCCATTGCTTTGCACATCAACCGGAGTCACCTAGTGCAG | 9900 fluorescence intensity (a.u.)
GCCGCCTACTACTTCTCCGAGGGTTCAAACCTCACCTTCACGGAGTCACCTAGTGCAG | 12100 fluorescence intensity (a.u.)
CCGCACCGTCCGCCGCGCCCTGCTCCGTCCTGCTCCGCCGCGGAGTCACCTAGTGCAG | 8430 fluorescence intensity (a.u.)
AGGGATAGATTGGCTTAGGGGCGGGTGGGTCTAGAGATTTCGGAGTCACCTAGTGCAG | 27000 fluorescence intensity (a.u.)

Given as tab-separated lines: part of the list above.
Sequence	binding signal
TACTTATGTAACACCTTTTGTATCTGAATGTATTTATTTCCGGAGTCACCTAGTGCAG	9790 fluorescence intensity (a.u.)
GGGGCACAGTTTCTTCAACCTCCAGCCATTAGGAACTTTTCGGAGTCACCTAGTGCAG	8150 fluorescence intensity (a.u.)

Additional entries

Sequence | binding signal
CAAAACATACAGGGCCCATATGCTCCTTTAATTTTTCTTTCGGAGTCACCTAGTGCAG | 8120 fluorescence intensity (a.u.)
GCGACCTGAAACTCCGGGAATTCACACGTTTTTCTGCAGACGGAGTCACCTAGTGCAG | 8320 fluorescence intensity (a.u.)
TTATTGTTATTATTATCATTTCACAGGAAGTACTTGATCCCGGAGTCACCTAGTGCAG | 8710 fluorescence intensity (a.u.)
CACTACTATGATTCTTGGGCACATACTTCTCCTACTGATTCGGAGTCACCTAGTGCAG | 12100 fluorescence intensity (a.u.)
AACAACCACTTGCCATTGCCCCACACCCACCTCCTCGCCTCGGAGTCACCTAGTGCAG | 13000 fluorescence intensity (a.u.)
AACGACCTTATCATCTCGTTTCGCATGTTTCCGCACCGTACGGAGTCACCTAGTGCAG | 10400 fluorescence intensity (a.u.)
CATATTATTATAATATTATAAGTCGTTTAACTATTATTTTCGGAGTCACCTAGTGCAG | 8740 fluorescence intensity (a.u.)
AGTTCATGTTCATTCCGCATCCCCTTCTCTCGGTTTCTCCCGGAGTCACCTAGTGCAG | 11800 fluorescence intensity (a.u.)
TTGCATTTTTGACTGTTTGCGTTGACTCCCTCACTTCTTCCGGAGTCACCTAGTGCAG | 16400 fluorescence intensity (a.u.)
ATCAGATTTACCGGCGTATCTTGACGGCCACGTCAGTCCCCGGAGTCACCTAGTGCAG | 8210 fluorescence intensity (a.u.)
CCCTGTTCCATTTGTACCCTAACTCAGGACCCTAACTAATCGGAGTCACCTAGTGCAG | 8790 fluorescence intensity (a.u.)
CCTCGACTCCGGCGACCACCCCGCCGCGCTCCACCTCGCCCGGAGTCACCTAGTGCAG | 11200 fluorescence intensity (a.u.)
TGTTTCTCCAGTCTCCACATCACTGCGTGTCTGCGTCGCCCGGAGTCACCTAGTGCAG | 8790 fluorescence intensity (a.u.)
CTCGCCCTCGCCCAACGCGCGGTTTTACCCTCTTTTTTTTCGGAGTCACCTAGTGCAG | 8680 fluorescence intensity (a.u.)
TCTCTTCTCCTCGTGCTCGTCACTCGCGAGCAAATACATCCGGAGTCACCTAGTGCAG | 8320 fluorescence intensity (a.u.)
AGGGTAGGGTTCTGGTGGTGGTGCTAGTGTGTGTGGGTGTCGGAGTCACCTAGTGCAG | 9070 fluorescence intensity (a.u.)
ACACCTTTCACACATCCCTTTTCCCTTTCTCCGCGTCGGCCGGAGTCACCTAGTGCAG | 8690 fluorescence intensity (a.u.)
TTTGTGCCTTCTACGAATTCCTCGTTTCCCTTTTTTTTCGCGGAGTCACCTAGTGCAG | 9050 fluorescence intensity (a.u.)
CTTTGGGTTGGGGTGTCCCATTTTTCCTTCTTCGATGATACGGAGTCACCTAGTGCAG | 12000 fluorescence intensity (a.u.)
ATCAATATTTTCGCTTTATGCTTATGCTTACTAGTCAAAACGGAGTCACCTAGTGCAG | 11100 fluorescence intensity (a.u.)
AACCCGGTCATCTGCATCATCTCCTCAACAGCGTGTTACACGGAGTCACCTAGTGCAG | 11300 fluorescence intensity (a.u.)
